Results taken from patent US20230136569A1, “USE OF NMN TO REDUCE IMMUNODEPRESSION AND IMMUNOSENESCENCE” (NUVAMID SA, priority 2020, published 2023).

Test: Weight gain and water consumption of mice given the compounds in drinking water
Format: in vivo
Details: old mice, 500 mg/kg p.o. in drinking water; compared with the mice of 11 weeks (FIG. 1B)
Procedure: The administering of β-NMN at 500 mg/kg, of α-NMN at 500 mg/kg and of the vehicle (water) was obtained via oral route (p.o) in the drinking water to young and old mice. The solutions were prepared by dissolving the powder of β-NMN or α-NMN in the vehicle (water). The solution was used at ambient temperature for no more than 2 days and was freshly prepared for each new administration. The mice were weighed each week to adapt the dose of the compound to be administered. Throughout the entire phase, a standard food diet and tap water were provided ad libitum. The study comprised 4 groups each having 6 mice: • Group 1: young mice (aged 10 weeks)+drinking water (vehicle) • Groupe 2: old mice (aged 15 months)+drinking water (vehicle) • Group 3: old mice (aged 15 months)+compound I-B (alpha-NMN) in the drinking water • Group 4: old mice (aged 15 months)+compound I-A (beta-NMN) in the drinking water The water consumption of the mice was assessed per cage every other day. The mice were weighed every week. The mice in Group 3 were sacrificed after 4 weeks for organ collection and characterisation of T cell function. The mice in Group 4 were sacrificed after 6 weeks for organ collection and characterisation of T cell function. On the day of sacrifice, the mice were anaesthetised with Vetoflurane (isoflurane) and blood samples were taken from the retroorbital sinus. […]

For NC(=O)c1ccc[n+]([C@@H]2O[C@H](COP(=O)([O-])O)[C@@H](O)[C@H]2O)c1 (stereo in doubt) [I-A, nicotinamide mononucleotide], the water consumption was “did not have any effect on water consumption”.
With NC(=O)c1ccc[n+]([C@H]2O[C@H](COP(=O)([O-])O)[C@@H](O)[C@H]2O)c1 (stereo in doubt) [I-B, alpha nicotinamide mononucleotide] the water consumption was “did not have any effect on water consumption”.
